According to patent US20110195911A1, “SYNTHETIC ANALOGS OF THE JUXTAMEMBRANE DOMAIN OF IGF1R AND USES THEREOF” (THE UNITED STATES OF AMERICA,AS REPRESENTED BY THE …, priority 2008, published 2011):
Some entries share one result that the patent states for a list of compounds. Where a SMILES comes first, the peptide text is derived from it. The star is where a group is joined. Palmitoyl = CCCCCCCCCCCCCCCC(=O)*

System: MCF-7 breast cancer cells
Assay: MTT cell toxicity assay in MCF-7 breast cancer cells
Assay type: cell-based
Settings: comparison with related peptides
Method: Cell Toxicity Assays: MCF-7 (breast cancer), T47D (breast cancer), Colo 205 (colon cancer), JM-1 (rat hepatoma), Sk Me1-2 (melanoma), PLC (human hepatoma), and HepG2 (human hepatoma) cells were obtained from American Type Cell Culture Collection. MCF-7 cells were grown in RPMI medium supplemented with 10% Fetal Bovine Serum. The rest of the cell lines were grown in DMEM medium supplemented with 10% Fetal Bovine Serum.
MTT 43-(4,5-Dimethylthiazol-2-yl)-2,5-diphenyltetrazolium) cell assay was performed using MCF-7 breast cancer cells. For the assay, cells were seeded into 96 well plates in medium containing 1% Fetal Bovine Serum and 100 μL of a cell suspension containing 5000 cells per well. Wells containing medium-only, and wells containing untreated cells, served as controls.
Seeded cells were allowed to attach and grow in the wells for 24 hours. A 5 mM stock solution of each peptide was made by dissolving approximately 1 mg of peptide in appropriate amount of DMSO. 2 mL dilutions were used to make 0.2 μM, 1.0 μM, 5.0 μM, and 10.0 μM concentration solutions of the compounds in serum-free medium. 100 μl, of the resulting 2× solutions were added to the corresponding wells to provide a final FBS concentration of 0.5% and 0.1 μM, 0.5 μM, 2.5 μM, and 5.0 μM dilutions of inhibitors. The cells were incubated with test compounds for two days. The control wells were given 100 μL of medium to ensure maximum similarity to the test wells so that all of the wells had 200 μL of medium during the growth period. An individual plate was made for Time Zero, to which the dye was added at the time of addition of compounds.
An alternative potency assay was used to test compounds in MCF-7 (breast cancer), T47D (breast cancer), Colo 205 (colon cancer), JM-1 (rat hepatoma), Sk MeI-2 (melanoma), PLC (human hepatoma), and HepG2 (human hepatoma) cells. Cells were suspended at a concentration of approximately 5000 cells per 100 μL of suspension in a 5% FBS RPMI medium. The cells were seeded into 96-count wells and incubated over night. After one day's incubation, the 5% FBS medium was aspirated and replaced with 100 μL of no serum RPMI medium containing 1 mg Bovine Serum Albumin (BSA) per 1 mL RPMI. Various concentrations of the test compounds were prepared by dilution in no-serum medium containing 1 mg BSA/mL. 75 μL of the test compound solutions were added to the wells, and the cells were allowed to incubate for 15-20 minutes, after which time 25 μL of human recombinant IGF-1 (Peprotech) solution was added to the wells to attain final concentrations of 10 ng IGF-1/mL medium. The control wells were given 175 μL of no-serum medium in addition to 25 μL of IGF-1 solution. An individual plate was made for time zero, in which the medium was also aspirated and replaced with 175 μL of no-serum medium and 25 μL of IGF-1. 15 μL of MTT dye was added and let incubate for 4 hours, after which time a stop stop solubilization solution was added. The stop solution lysed the cells and released the dye reduced by the remaining living cells. Absorbance of the wells at 544 nm was determined by a FLUOstar/POLARstar Galaxy (BMG Lab Technologies GmbH) microplate reader. The activity was calculated from the data using the formula: 100×[(T−T0)/(C−T0)] for T>T0 and 100×[(T−T0)/T0] for T<T0, wherein T0 corresponds to cell density at the time of drug addition, “T” is the optical density of the test well after a 48-h period of exposure to test drug, and “C” is the control optical density. […]

Structure (SMILES): CCCCCCCCCCCCCCCC(=O)N[C@@H](Cc1c[nH]cn1)C(=O)N[C@@H](CCCNC(=N)N)C(=O)N[C@@H](CCCCN)C(=O)N[C@@H](CCCNC(=N)N)C(=O)N[C@@H](CC(N)=O)C(=O)N[C@@H](CC(N)=O)C(=O)N[C@@H](CO)C(=O)N[C@@H](CCCNC(=N)N)C(=O)N[C@@H](CC(C)C)C(=O)NCC(=O)N[C@@H](CC(N)=O)C(=O)NCC(=O)N[C@H](C(=O)N[C@@H](CC(C)C)C(N)=O)C(C)C [Peptide 10, Pal-HRKRNNSRLGNGVL-NH2] (Palmitoyl-HRKRNNSRLGNGVL-NH2)
- growth inhibition / potency in MCF-7 cells (in words): gradual decrease in growth inhibitory activity

Structure (SMILES): CCCCCCCCCCCCCCCC(=O)N[C@@H](Cc1c[nH]cn1)C(=O)N[C@@H](CCCNC(=N)N)C(=O)N[C@@H](CCCCN)C(=O)N[C@@H](CCCNC(=N)N)C(=O)N[C@@H](CC(N)=O)C(=O)N[C@@H](CC(N)=O)C(=O)N[C@@H](CO)C(=O)N[C@@H](CCCNC(=N)N)C(=O)N[C@@H](CC(C)C)C(=O)NCC(=O)N[C@@H](CC(N)=O)C(=O)NCC(=O)N[C@H](C(=O)N[C@@H](CC(C)C)C(=O)N[C@@H](Cc1ccc(O)cc1)C(=O)N[C@@H](C)C(=O)N[C@@H](CO)C(N)=O)C(C)C [Peptide 7, Pal-HRKRNNSRLGNGVLYAS-NH2] (Palmitoyl-HRKRNNSRLGNGVLYAS-NH2)
- growth inhibition / potency in MCF-7 cells (in words): gradual decrease in growth inhibitory activity

Structure (SMILES): CCCCCCCCCCCCCCCC(=O)N[C@@H](Cc1c[nH]cn1)C(=O)N[C@@H](CCCNC(=N)N)C(=O)N[C@@H](CCCCN)C(=O)N[C@@H](CCCNC(=N)N)C(=O)N[C@@H](CC(N)=O)C(=O)N[C@@H](CC(N)=O)C(=O)N[C@@H](CO)C(=O)N[C@@H](CCCNC(=N)N)C(=O)N[C@@H](CC(C)C)C(=O)NCC(=O)N[C@@H](CC(N)=O)C(=O)NCC(=O)N[C@H](C(=O)N[C@@H](CC(C)C)C(=O)N[C@@H](Cc1ccc(O)cc1)C(=O)N[C@@H](C)C(N)=O)C(C)C [Peptide 8, Pal-HRKRNNSRLGNGVLYA-NH2] (Palmitoyl-HRKRNNSRLGNGVLYA-NH2)
- growth inhibition / potency in MCF-7 cells (in words): gradual decrease in growth inhibitory activity

Structure (SMILES): CCCCCCCCCCCCCCCC(=O)N[C@@H](Cc1c[nH]cn1)C(=O)N[C@@H](CCCNC(=N)N)C(=O)N[C@@H](CCCCN)C(=O)N[C@@H](CCCNC(=N)N)C(=O)N[C@@H](CC(N)=O)C(=O)N[C@@H](CC(N)=O)C(=O)N[C@@H](CO)C(=O)N[C@@H](CCCNC(=N)N)C(=O)N[C@@H](CC(C)C)C(=O)NCC(=O)N[C@@H](CC(N)=O)C(=O)NCC(=O)N[C@H](C(=O)N[C@@H](CC(C)C)C(=O)N[C@@H](Cc1ccc(O)cc1)C(N)=O)C(C)C [Peptide 9, Pal-HRKRNNSRLGNGVLY-NH2] (Palmitoyl-HRKRNNSRLGNGVLY-NH2)
- growth inhibition / potency in MCF-7 cells (in words) (listed as peptide 9): gradual decrease in growth inhibitory activity

Structure (SMILES): CCCCCCCCCCCCCCCC(=O)N[C@@H](Cc1c[nH]cn1)C(=O)N[C@@H](CCCNC(=N)N)C(=O)N[C@@H](CCCCN)C(=O)N[C@@H](CCCNC(=N)N)C(=O)N[C@@H](CC(N)=O)C(=O)N[C@@H](CC(N)=O)C(=O)N[C@@H](CO)C(=O)N[C@@H](CCCNC(=N)N)C(=O)N[C@@H](CC(C)C)C(=O)NCC(=O)N[C@@H](CC(N)=O)C(=O)NCC(=O)N[C@H](C(N)=O)C(C)C [Peptide 11, Pal-HRKRNNSRLGNGV-NH2] (Palmitoyl-HRKRNNSRLGNGV-NH2)
- growth inhibition / potency in MCF-7 cells (in words): gradual decrease in growth inhibitory activity
